These are yes or no findings as the source states them, for the method shown. Binding seen in cells or lysates may run through a third protein. Some binding calls cover weakened binding; strength is not graded here.

Chains of the proteins cited; added tags and fusions are not shown.
UniProt P25095: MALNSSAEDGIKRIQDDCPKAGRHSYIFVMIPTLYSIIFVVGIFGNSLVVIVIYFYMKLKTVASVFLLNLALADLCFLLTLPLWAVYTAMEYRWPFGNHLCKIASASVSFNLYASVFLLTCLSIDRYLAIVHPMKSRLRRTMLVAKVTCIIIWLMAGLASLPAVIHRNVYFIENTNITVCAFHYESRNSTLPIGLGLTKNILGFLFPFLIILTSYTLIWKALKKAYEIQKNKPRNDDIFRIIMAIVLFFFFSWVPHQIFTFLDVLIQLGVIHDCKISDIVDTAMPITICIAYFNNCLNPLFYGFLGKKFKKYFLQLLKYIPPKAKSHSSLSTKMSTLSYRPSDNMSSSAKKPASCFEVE
UniProt P32120: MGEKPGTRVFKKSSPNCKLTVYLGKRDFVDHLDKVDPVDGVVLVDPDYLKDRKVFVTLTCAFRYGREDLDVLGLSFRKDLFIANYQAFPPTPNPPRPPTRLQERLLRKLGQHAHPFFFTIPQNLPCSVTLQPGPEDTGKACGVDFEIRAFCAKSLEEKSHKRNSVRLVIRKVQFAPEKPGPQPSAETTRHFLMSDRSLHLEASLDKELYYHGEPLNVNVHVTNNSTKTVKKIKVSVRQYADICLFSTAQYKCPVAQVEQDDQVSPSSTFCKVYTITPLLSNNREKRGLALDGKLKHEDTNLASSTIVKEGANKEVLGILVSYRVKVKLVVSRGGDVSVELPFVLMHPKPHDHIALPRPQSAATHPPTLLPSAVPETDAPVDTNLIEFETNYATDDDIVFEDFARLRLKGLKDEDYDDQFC

We go through 1 substance from PMC3597553.

This test deals with angiotensin II type 1 receptor tagged with Renilla luciferase (AT1R-Rluc8) (not stated (rat AT1a and human AT1R plasmids are listed)) (UniProt P25095). Nature of the test: FRET or BRET; BRET1 measured in real time in living HEK293 cells co-expressing AT1R-Rluc and YFP-β-arrestin2; AngII concentration-response; in absence or presence of untagged TPαR; cells in PBS with 0.5 mM Ca2+ and 0.5 mM Mg2+.

Regarding “YFP-tagged bovine β-arrestin2 (from UniProt P32120 1-420)”, the binding result was “binds”.
